Assay results reported in the supplement of paper PMC4604168 (melanoma cell lines).
The list shows a part of the results. Single values are uncertain, as repeats are few or missing.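 Cells were imaged in 1,536-well plates, and nuclei stained with an antibody against cleaved PARP were counted against all DNA-stained nuclei to give the apoptosis fraction. Screening doses were chosen to leave most cells alive, and resting and induced cleaved-PARP levels differ strongly between cell lines.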

Assays:
Test in all cases: cleaved PARP positive nuclei fraction relative to DMSO control; melanoma cells; higher = more apoptosis
Details in all cases: library dose: low library concentration; 72 h
WM115 = test system: WM115
WM1716 = test system: WM1716
WM1745 = test system: WM1745
WM3526 = test system: WM3526
WM3619 = test system: WM3619
WM451Lu = test system: WM451Lu

Structure (SMILES)	cleaved PARP positive nuclei fraction (WM115)	cleaved PARP positive nuclei fraction (WM1716)	cleaved PARP positive nuclei fraction (WM1745)	cleaved PARP positive nuclei fraction (WM3526)	cleaved PARP positive nuclei fraction (WM3619)	cleaved PARP positive nuclei fraction (WM451Lu)
CC(=O)O[C@@]12CO[C@@H]1C[C@H](O)[C@@]1(C)C(=O)[C@H](O)C3=C(C)[C@@H](OC(=O)[C@H](O)[C@@H](NC(=O)OC(C)(C)C)c4ccccc4)C[C@@](O)([C@@H](OC(=O)c4ccccc4)[C@H]21)C3(C)C [Docetaxel] + C/C(O)=C(\C#N)C(=O)Nc1cc(Br)ccc1Br [LFM-A13] (first compound 0.0001 µM, partner dose 2 µM)	479%	373%	194%	140%	140%	144%
C/C(O)=C(\C#N)C(=O)Nc1cc(Br)ccc1Br + O=C(Oc1ccc([N+](=O)[O-])cc1)N1CCC(C(O)(c2ccc3c(c2)OCO3)c2ccc3c(c2)OCO3)CC1 [JZL184] (first compound 2 µM, partner dose 1 µM)	42.2%	131%	101%	57.8%	103%	104%
Cn1cc(C2=C(c3cn(C4CCN(Cc5ccccn5)CC4)c4ccccc34)C(=O)NC2=O)c2ccccc21 [Enzastaurin] + COc1ccc(COc2ccc(Cc3cnc(N)nc3N)cc2OC)cc1 [GW2580] (first compound 0.8 µM, partner dose 1 µM)	174%	220%	107%	340%	97.9%	58.3%
C[C@]12O[C@H](C[C@]1(O)CO)n1c3ccccc3c3c4c(c5c6ccccc6n2c5c31)CNC4=O [Lestaurtinib] + C=CCn1c(=O)c2cnc(Nc3ccc(N4CCN(C)CC4)cc3)nc2n1-c1cccc(C(C)(C)O)n1 [MK1775] (first compound 0.004 µM, partner dose 0.02 µM)	242%	91.4%	109%	63.4%	173%	57.2%
Cn1cc(C2=C(c3cn(C4CCN(Cc5ccccn5)CC4)c4ccccc34)C(=O)NC2=O)c2ccccc21 [Enzastaurin] + C[C@]1(O)C[C@@H](c2nc(-c3ccc4ccc(-c5ccccc5)nc4c3)c3c(N)nccn32)C1 [OSI906] (first compound 0.8 µM, partner dose 0.4 µM)	84.4%	96.8%	94%	36%	97.1%	41.8%
C[C@]12O[C@H](C[C@]1(O)CO)n1c3ccccc3c3c4c(c5c6ccccc6n2c5c31)CNC4=O [Lestaurtinib] + N.N.[Cl][Pt][Cl] [cisplatin] (first compound 0.004 µM, partner dose 1.6 µM)	180%	98.2%	118%	98.7%	112%	99.7%
Cn1cc(C2=C(c3cn(C4CCN(Cc5ccccn5)CC4)c4ccccc34)C(=O)NC2=O)c2ccccc21 [Enzastaurin] + COc1cc(Nc2ncc(F)c(Nc3ccc4c(n3)NC(=O)C(C)(C)O4)n2)cc(OC)c1OC [Tamatinib] (first compound 0.8 µM, partner dose 0.4 µM)	133%	152%	119%	59.5%	117%	151%
CC1(C)CCC(c2ccc(Cl)cc2)=C(CN2CCN(c3ccc(C(=O)NS(=O)(=O)c4ccc(N[C@H](CCN5CCOCC5)CSc5ccccc5)c(S(=O)(=O)C(F)(F)F)c4)cc3)CC2)C1 + N.N.[Cl][Pt][Cl] [cisplatin] (first compound 0.4 µM, partner dose 1.6 µM)	500%	99.3%	1050%	42.3%	133%	79.7%
N.N.[Cl][Pt][Cl] [cisplatin] + CO[C@H]1C[C@@H]2CC[C@@H](C)[C@@](O)(O2)C(=O)C(=O)N2CCCC[C@H]2C(=O)O[C@H]([C@H](C)C[C@@H]2CC[C@@H](OCCO)[C@H](OC)C2)CC(=O)[C@H](C)/C=C(\C)[C@@H](O)[C@@H](OC)C(=O)[C@H](C)C[C@H](C)/C=C/C=C/C=C/1C [everolimus] (first compound 1.6 µM, partner dose 0.02 µM)	172%	93%	105%	108%	122%	136%
Cc1cc(SCc2sc(-c3ccc(C(F)(F)F)c(F)c3)nc2C)ccc1OCC(=O)O + Cc1cc([N+](=O)[O-])ccc1NS(=O)(=O)c1cc(Cl)ccc1Cl [FH535] (first compound 2 µM, partner dose 1 µM)	159%	104%	116%	124%	84.8%	18.4%
Cn1sc(=O)n(Cc2ccccc2)c1=O + N.N.[Cl][Pt][Cl] [cisplatin] (first compound 0.4 µM, partner dose 1.6 µM)	285%	732%	101%	92%	91.9%	43.2%
COc1cc([C@@H]2c3cc4c(cc3[C@@H](O[C@@H]3O[C@@H]5CO[C@@H](C)O[C@H]5[C@H](O)[C@H]3O)[C@H]3COC(=O)[C@H]23)OCO4)cc(OC)c1O [etoposide] + N.N.[Cl][Pt][Cl] [cisplatin] (first compound 0.02 µM, partner dose 1.6 µM)	278%	53%	93.5%	97.2%	120%	103%
Clc1ccc(Nc2nnc(Cc3ccncc3)c3ccccc23)cc1 [vatalanib] + C[As](C)SC[C@H](NC(=O)CC[C@H](N)C(=O)O)C(=O)NCC(=O)O [Darinaparsin] (first compound 2 µM, partner dose 0.4 µM)	130%	142%	105%	98%	129%	107%
NC(=O)c1ccc(N(C(N)=O)c2c(F)cccc2F)nc1-c1ccc(F)cc1F + N.N.[Cl][Pt][Cl] [cisplatin] (first compound 0.4 µM, partner dose 1.6 µM)	114%	77.1%	106%	48.2%	82.4%	76.3%
C[As](C)SC[C@H](NC(=O)CC[C@H](N)C(=O)O)C(=O)NCC(=O)O [Darinaparsin] + Cc1ccc(NC(=O)c2cccc(N(C)C)c2)cc1NC(=O)c1ccc(O)cc1 [ZM336372] (first compound 0.4 µM, partner dose 2 µM)	84.1%	67.1%	80.8%	60.5%	66.5%	96.6%
C[As](C)SC[C@H](NC(=O)CC[C@H](N)C(=O)O)C(=O)NCC(=O)O [Darinaparsin] + COc1ccc(-c2ccc3c(N4CCOCC4)nc(N4C[C@@H](C)O[C@@H](C)C4)nc3n2)cc1CO [KU0063794] (first compound 0.4 µM, partner dose 0.02 µM)	61%	116%	107%	78.2%	94.2%	92.5%
N.N.[Cl][Pt][Cl] [cisplatin] + Cn1cncc1[C@@](N)(c1ccc(Cl)cc1)c1ccc2c(c1)c(-c1cccc(Cl)c1)cc(=O)n2C [tipifarnib] (first compound 1.6 µM, partner dose 0.01 µM)	38.8%	72.8%	95.2%	64.8%	87.9%	29.9%
COc1cc([C@@H]2c3cc4c(cc3[C@@H](O[C@@H]3O[C@@H]5CO[C@@H](C)O[C@H]5[C@H](O)[C@H]3O)[C@H]3COC(=O)[C@H]23)OCO4)cc(OC)c1O [etoposide] + C[As](C)SC[C@H](NC(=O)CC[C@H](N)C(=O)O)C(=O)NCC(=O)O [Darinaparsin] (first compound 0.02 µM, partner dose 0.4 µM)	77.9%	63.6%	89.5%	122%	163%	27%
Cn1cc(C2=C(c3cn(C4CCN(Cc5ccccn5)CC4)c4ccccc34)C(=O)NC2=O)c2ccccc21 [Enzastaurin] + O=C(Oc1ccc([N+](=O)[O-])cc1)N1CCC(C(O)(c2ccc3c(c2)OCO3)c2ccc3c(c2)OCO3)CC1 [JZL184] (first compound 0.8 µM, partner dose 1 µM)	124%	201%	91.9%	147%	105%	126%
CCN(CC)CCNC(=O)c1c(C)[nH]c(/C=C2\C(=O)Nc3ccc(F)cc32)c1C [sunitinib] + C/C(O)=C(\C#N)C(=O)Nc1cc(Br)ccc1Br [LFM-A13] (first compound 0.4 µM, partner dose 2 µM)	69.8%	87.6%	105%	98%	87.2%	118%
O=C(/C=C/c1cccnc1)NCCCCC1CCN(C(=O)c2ccccc2)CC1 + C[C@]12O[C@H](C[C@]1(O)CO)n1c3ccccc3c3c4c(c5c6ccccc6n2c5c31)CNC4=O [Lestaurtinib] (first compound 0.01 µM, partner dose 0.004 µM)	178%	241%	95.4%	91.1%	138%	65.8%
CCCCCCCCc1ccc(CCC(N)(CO)CO)cc1 [fingolimod] + C/C(O)=C(\C#N)C(=O)Nc1cc(Br)ccc1Br [LFM-A13] (first compound 2 µM, partner dose 2 µM)	122%	155%	199%	175%	103%	49.8%

Taken from the results shown for reference:
Structure (SMILES)	cleaved PARP positive nuclei fraction (WM115)	cleaved PARP positive nuclei fraction (WM1716)	cleaved PARP positive nuclei fraction (WM1745)	cleaved PARP positive nuclei fraction (WM3526)	cleaved PARP positive nuclei fraction (WM3619)	cleaved PARP positive nuclei fraction (WM451Lu)
Clc1ccc(Nc2nnc(Cc3ccncc3)c3ccccc23)cc1 [vatalanib] + C[As](C)SC[C@H](NC(=O)CC[C@H](N)C(=O)O)C(=O)NCC(=O)O [Darinaparsin] (first compound 2 µM, partner dose 0.4 µM)	130%	142%	105%	98%	129%	107%
NC(=O)c1ccc(N(C(N)=O)c2c(F)cccc2F)nc1-c1ccc(F)cc1F + N.N.[Cl][Pt][Cl] [cisplatin] (first compound 0.4 µM, partner dose 1.6 µM)	114%	77.1%	106%	48.2%	82.4%	76.3%
